# According to US20080188447A1, “Glucocorticoid-lowering composition” (priority 2007, published 2008):
# For at least one compound, name, drawing or mass did not settle the structure.
# Assay: Daily food intake with subcutaneous steroid supplementation (Example 3)
# Format: in vivo, rat
# Conditions: group C (oral corn oil vehicle, no extract), steroid 5 mg/kg/day sc on days 4 and 5
# Description: Male Wistar rats weighing about 250 g (2 groups designated as group C, control; and E, experimental treatment; 24 individuals per group) were kept as described in the Example 1 from day 1 to day 6 of the experiment. On days 1 through 4, a botanical extract from a plant Asclepias incarnata enriched with pregnane derivatives according to Formula (I) was administered orally in doses of 100 mg/kg body weight/day in 1 ml of corn oil (Sigma #C8267). As a negative control (vehicle), animals were administered orally with 1 ml of corn oil alone. On day 4 of the experiment both groups of animals C and E were further subdivided into 6 groups containing 4 animals each, designated C, control; PREG, pregnenolone; PROG, progesterone; DEOX, deoxycorticosterone; CORT, corticosterone; and DHEA, dehydroepiandrosterone. On day 4 and day 5, animals from these subgroups received a subcutaneous injection of 5 mg/kg body weight/day of the respective steroid compound in 5% DMSO and corn oil; total volume of 0.1 ml. The control animals in group C subgroup C and group E subgroup C received a subcutaneous injection of vehicle (5% DMSO in corn oil) only. On days 4 and 6 food intake was measured. […]
structure (smiles),measurement,value
"C[C@]12CC[C@H]3[C@@H](CCC4=CC(=O)CC[C@@]43C)[C@@H]1CC[C@@H]2C(=O)CO [DEOX, deoxycorticosterone]","Daily food intake, Day 4",24.2 +− 1.5 g
same,"Daily food intake, Day 6",25.4 +− 2.1 g
